Results reported in patent US20030162221A1.
These are yes or no findings as the source states them, for the method shown. Binding seen in cells or lysates may run through a third protein. Some binding calls cover weakened binding; strength is not graded here. Tags and fused reporters may be left off the sequences shown.

T1: Bem3 (Saccharomyces cerevisiae) (UniProt P32873)
T1 sequence (looked up): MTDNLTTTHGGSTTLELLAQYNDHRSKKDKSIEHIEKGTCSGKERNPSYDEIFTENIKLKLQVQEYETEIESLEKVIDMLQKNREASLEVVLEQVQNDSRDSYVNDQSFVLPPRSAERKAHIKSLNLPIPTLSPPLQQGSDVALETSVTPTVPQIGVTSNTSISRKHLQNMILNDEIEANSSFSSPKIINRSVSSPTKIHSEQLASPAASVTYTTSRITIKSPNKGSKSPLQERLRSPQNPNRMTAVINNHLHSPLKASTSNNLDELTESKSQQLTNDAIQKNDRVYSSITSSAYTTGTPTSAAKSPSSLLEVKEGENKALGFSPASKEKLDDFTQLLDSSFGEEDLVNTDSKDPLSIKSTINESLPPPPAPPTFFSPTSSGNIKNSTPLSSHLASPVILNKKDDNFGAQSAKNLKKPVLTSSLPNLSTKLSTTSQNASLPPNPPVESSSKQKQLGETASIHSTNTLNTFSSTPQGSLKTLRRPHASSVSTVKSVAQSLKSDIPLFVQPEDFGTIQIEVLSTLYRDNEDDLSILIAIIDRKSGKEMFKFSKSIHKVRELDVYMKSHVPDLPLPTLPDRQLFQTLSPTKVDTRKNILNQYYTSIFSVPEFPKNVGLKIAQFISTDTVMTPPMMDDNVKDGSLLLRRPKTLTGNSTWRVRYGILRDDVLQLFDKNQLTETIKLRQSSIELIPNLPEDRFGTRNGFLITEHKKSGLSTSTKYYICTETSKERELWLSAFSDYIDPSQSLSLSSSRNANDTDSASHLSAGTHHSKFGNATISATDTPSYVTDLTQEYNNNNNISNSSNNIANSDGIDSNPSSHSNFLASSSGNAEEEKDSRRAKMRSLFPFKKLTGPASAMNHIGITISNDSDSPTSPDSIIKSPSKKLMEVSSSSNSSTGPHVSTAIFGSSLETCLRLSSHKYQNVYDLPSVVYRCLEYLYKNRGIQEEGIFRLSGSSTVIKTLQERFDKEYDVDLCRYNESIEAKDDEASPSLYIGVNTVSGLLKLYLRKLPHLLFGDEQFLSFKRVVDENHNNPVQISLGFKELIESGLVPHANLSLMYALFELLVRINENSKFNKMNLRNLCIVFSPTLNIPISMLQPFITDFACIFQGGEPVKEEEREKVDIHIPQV

T2: Dig1/Rst1 (Saccharomyces cerevisiae) (UniProt Q03063)
T2 sequence (looked up): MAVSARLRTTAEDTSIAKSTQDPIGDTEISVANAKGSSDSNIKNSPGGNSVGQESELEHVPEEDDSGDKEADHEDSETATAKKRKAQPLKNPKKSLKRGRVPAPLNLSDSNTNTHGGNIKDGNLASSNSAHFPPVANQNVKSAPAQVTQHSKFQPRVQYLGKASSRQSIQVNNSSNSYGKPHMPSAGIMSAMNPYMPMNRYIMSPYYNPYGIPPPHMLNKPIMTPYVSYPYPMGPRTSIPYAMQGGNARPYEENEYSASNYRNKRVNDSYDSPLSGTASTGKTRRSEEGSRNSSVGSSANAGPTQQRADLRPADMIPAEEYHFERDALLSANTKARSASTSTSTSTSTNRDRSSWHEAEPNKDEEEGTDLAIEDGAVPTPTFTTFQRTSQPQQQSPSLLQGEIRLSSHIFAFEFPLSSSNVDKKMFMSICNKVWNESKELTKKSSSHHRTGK

T3: Smc3 (Saccharomyces cerevisiae) (UniProt P47037)
T3 sequence (looked up): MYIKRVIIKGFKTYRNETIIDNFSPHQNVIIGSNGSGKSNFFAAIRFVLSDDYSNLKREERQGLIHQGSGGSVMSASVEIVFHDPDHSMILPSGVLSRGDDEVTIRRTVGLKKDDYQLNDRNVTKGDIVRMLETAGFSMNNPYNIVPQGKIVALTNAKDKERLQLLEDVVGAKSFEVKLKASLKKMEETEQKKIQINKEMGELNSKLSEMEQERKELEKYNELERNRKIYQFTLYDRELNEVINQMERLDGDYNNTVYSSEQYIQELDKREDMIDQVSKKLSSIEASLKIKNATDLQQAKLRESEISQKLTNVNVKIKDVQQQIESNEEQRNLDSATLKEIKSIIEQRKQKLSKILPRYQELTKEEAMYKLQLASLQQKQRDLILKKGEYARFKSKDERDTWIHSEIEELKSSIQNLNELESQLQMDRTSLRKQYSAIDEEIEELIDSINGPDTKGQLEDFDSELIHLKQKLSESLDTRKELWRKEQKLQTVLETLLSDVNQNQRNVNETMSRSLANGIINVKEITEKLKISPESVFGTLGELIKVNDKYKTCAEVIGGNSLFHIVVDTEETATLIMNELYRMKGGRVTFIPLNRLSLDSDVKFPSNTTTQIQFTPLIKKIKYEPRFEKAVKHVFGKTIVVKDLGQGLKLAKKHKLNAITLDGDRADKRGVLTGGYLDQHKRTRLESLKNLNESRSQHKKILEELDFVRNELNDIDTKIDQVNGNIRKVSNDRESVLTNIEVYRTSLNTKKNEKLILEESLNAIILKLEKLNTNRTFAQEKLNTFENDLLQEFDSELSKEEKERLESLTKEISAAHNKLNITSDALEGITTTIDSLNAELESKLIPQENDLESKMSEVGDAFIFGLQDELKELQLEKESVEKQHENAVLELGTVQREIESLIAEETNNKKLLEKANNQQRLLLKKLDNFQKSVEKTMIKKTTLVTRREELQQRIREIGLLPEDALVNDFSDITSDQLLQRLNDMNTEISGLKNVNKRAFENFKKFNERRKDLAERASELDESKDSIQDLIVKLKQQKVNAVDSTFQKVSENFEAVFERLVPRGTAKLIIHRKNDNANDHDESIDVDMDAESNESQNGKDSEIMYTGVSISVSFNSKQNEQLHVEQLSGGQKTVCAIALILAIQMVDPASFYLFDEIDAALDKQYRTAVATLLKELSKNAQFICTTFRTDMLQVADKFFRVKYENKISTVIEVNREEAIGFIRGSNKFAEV


Tests used:
Assay in all cases: anti-FLAG co-IP, LC-MS/MS
[1] = molecular target: T1, Bem3 (Saccharomyces cerevisiae)
[2] = molecular target: T2, Dig1/Rst1 (Saccharomyces cerevisiae)
[3] = molecular target: T3, Smc3 (Saccharomyces cerevisiae)

Row | binding [1] | binding [2] | binding [3] | Binder
1 | binds | binds | – | Kss1 (protein, Saccharomyces cerevisiae, UniProt P14681 1-368, looked up) MARTITFDIPSQYKLVDLIGEGAYGTVCSAIHKPSGIKVAIKKIQPFSKKLFVTRTIREIKLLRYFHEHENIISILDKVRPVSIDKLNAVYLVEELMETDLQKVINNQNSGFSTLSDDHVQYFTYQILRALKSIHSAQVIHRDIKPSNLLLNSNCDLKVCDFGLARCLASSSDSRETLVGFMTEYVATRWYRAPEIMLTFQEYTTAMDIWSCGCILAEMVSGKPLFPGRDYHHQLWLILEVLGTPSFEDFNQIKSKRAKEYIANLPMRPPLPWETVWSKTDLNPDMIDLLDKMLQFNPDKRISAAEALRHPYLAMYHDPSDEPEYPPLNLDDEFWKLDNKIMRPEEEEEVPIEMLKDMLYDELMKTME
2 | – | – | binds | Cdc5 (protein, Saccharomyces cerevisiae, UniProt P32562 1-705, looked up) MSLGPLKAINDKQLNTRSKLVHTPIKGNTADLVGKENHFKQTKRLDPNNDHHHQPAQKKKREKLSALCKTPPSLIKTRGKDYHRGHFLGEGGFARCFQIKDDSGEIFAAKTVAKASIKSEKTRKKLLSEIQIHKSMSHPNIVQFIDCFEDDSNVYILLEICPNGSLMELLKRRKVLTEPEVRFFTTQICGAIKYMHSRRVIHRDLKLGNIFFDSNYNLKIGDFGLAAVLANESERKYTICGTPNYIAPEVLMGKHSGHSFEVDIWSLGVMLYALLIGKPPFQARDVNTIYERIKCRDFSFPRDKPISDEGKILIRDILSLDPIERPSLTEIMDYVWFRGTFPPSIPSTVMSEAPNFEDIPEEQSLVNFKDCMEKSLLLESMSSDKIQRQKRDYISSIKSSIDKLEEYHQNRPFLPHSLSPGGTKQKYKEVVDIEAQRRLNDLAREARIRRAQQAVLRKELIATSTNVIKSEISLRILASECHLTLNGIVEAEAQYKMGGLPKSRLPKIKHPMIVTKWVDYSNKHGFSYQLSTEDIGVLFNNGTTVLRLADAEEFWYISYDDREGWVASHYLLSEKPRELSRHLEVVDFFAKYMKANLSRVSTFGREEYHKDDVFLRRYTRYKPFVMFELSDGTFQFNFKDHHKMAISDGGKLVTYISPSHESTTYPLVEVLKYGEIPGYPESNFREKLTLIKEGLKQKSTIVTVD
